We go through nine compounds from the supplement of paper PMC12889115.

The experiment deals with Salmonella enterica serovar Typhimurium SL1344. Description: bacterial growth OD600 after 18 h with compound and polymyxin B; higher = more bacterial growth (less inhibition). The conditions noted are these: 50 µM, Mueller-Hinton broth.

The other results are listed elsewhere or left out. Values are raw readings; no control value is given beside them.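 Primary screen: polymyxin B was added at a level permeabilizing Salmonella outer membranes while sparing inner membranes. DMSO wells, both with and without polymyxin B, established maximum growth. Plate-to-plate variation meant each plate was ranked on its own, and the lowest-OD600 compounds were selected as hits.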

`O=C(NC1CC1)C1CCCN(C2CCN(Cc3ccsc3)CC2)C1` (centres undefined): for the setting “polymyxin B 0.75 µg/mL”, the “bacterial growth OD600” value was 0.793.

For `Cc1oc(-c2ccc(NC(=O)Cc3ccccc3)cc2)nc1CNC(=O)c1ccccc1Cl`, for the setting “polymyxin B 0.75 µg/mL”, the “bacterial growth OD600” value was found to be 0.838.

In the case of `COc1ccc2ccc(OCc3nc(C(=O)NC(C)(C)C)co3)cc2c1`, under “polymyxin B 1 µg/mL”, the “bacterial growth OD600” value was found to be 0.746.

As to `CSc1ccc(CC2(CCC(=O)N3CCC(c4ccc(F)cc4)C3)CCC(=O)N2)cc1` (centres undefined), the “bacterial growth OD600” value (polymyxin B 0.75 µg/mL) came out at 0.962.

Regarding `CC(=O)CC(C)C(=O)N1CCc2ccc(NC(=O)CCc3ccc(C)cc3)cc2C1` (centres undefined), the “bacterial growth OD600” value (polymyxin B 1 µg/mL) was 0.98.

Consider `CN(c1ncccc1CNC(=O)c1ccco1)C1CCCCC1`, for which the “bacterial growth OD600” value (polymyxin B 1 µg/mL) was 0.675.

`COc1ccc(CC2(CCC(=O)N(CC3CCC3)CC3CCCO3)CCC(=O)N2)c2ccccc12` (centres undefined): the “bacterial growth OD600” value (polymyxin B 0.75 µg/mL) is 0.791.

Consider `CCCNC(=O)N1CCC2(CCCN(Cc3cccc(C)c3)C2=O)C1` (centres undefined), for which the “bacterial growth OD600” value (polymyxin B 1 µg/mL) was found to be 1.

For `Cc1cccc(Cc2nnc(CCC(=O)N(C)CC3CCN(CC(C)C)CC3)o2)c1`, where the note is “polymyxin B 0.75 µg/mL”, the “bacterial growth OD600” value turned out to be 0.8.
